Assay results published in patent US20200347131A1.
No constants are given. Whether binding was seen depends on the method and setting. Binding can be weak; no strength is given.

Tests used:
[1] = target: cynomolgus monkey LAG-3 on CHO cells (CHO-cynoLAG-3) (cynomolgus monkey); experiment: flow cytometry, FITC-labelled antibody on CHO-cynoLAG-3 cells
[2] = target: cynomolgus monkey LAG-3 on CHO cells (CHO-cynoLAG-3) (cynomolgus monkey); experiment: FACS with FITC-labelled antibody on CHO-cynoLAG-3 cells

binding [1]: binds
binding [2]: binds
B1: humanized antibody AB12T4 (antibody, human IgG4 S228P, kappa, V domains shown)
VH: DVQLQESGPGLVKPSQTLSLTCTVTGYSITSFYSWHWIRQFPGKGLEWMGCIQYSGDTDSNPSLKSRITITRDTSENQLFLKLSSVTAADTATYYCARSPYDSDPYYVMDYWGQGTLVTVSS
VL: DIVMSQSPDSLAVSLGERITMTCKSSQSLLYSGNQKNYLAWYQQKPGQSPTLLIYWASTRDSGVPDRLTGSGSGTDFTLTISSVQAEDVAVYYCQQYYAYPYTFGQGTKLEIKR
